Some of the results follow.
Columns and labels:
Experiment in all cases: glycan array binding signal (z-score within array); higher = stronger binding
Details in all cases: glycan notation: IUPAC condensed, linker removed
[1] = biological target: Fuc(a1-2)Gal(b1-4)GlcNAc(b1-3)Gal(b1-4)GlcNAc(b1-2)Man(a1-3)[Fuc(a1-2)Gal(b1-4)GlcNAc(b1-3)Gal(b1-4)GlcNAc(b1-2)Man(a1-6)]Man(b1-4)GlcNAc(b1-4)GlcNAc
Outline: (§1)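 Glycan array binding is given as a within-array Z-score, which can be read as non-binding when negative. The arrays, 3228 of them, came from the Consortium for Functional Glycomics database and were retained only where the protein sequence was available. Z-scores were averaged across arrays of the same protein sequence at different concentrations or buffers and across linkers.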

[2] = biological target: Fuc(a1-2)Gal(b1-4)GlcNAc(b1-3)Gal(b1-4)GlcNAc(b1-3)Gal(b1-4)GlcNAc
Outline: as §1

[3] = biological target: Fuc(a1-2)Gal(b1-4)GlcNAc(b1-3)GalNAc
Outline: as §1

[4] = biological target: Fuc(a1-2)Gal(b1-4)GlcNAc(b1-3)[Fuc(a1-2)Gal(b1-4)GlcNAc(b1-6)]GalNAc
Outline: as §1

[5] = biological target: Fuc(a1-2)Gal(b1-4)GlcNAc(b1-3)[Fuc(a1-3)[Gal(b1-4)]GlcNAc(b1-6)]Gal(b1-4)Glc
Outline: as §1

[6] = biological target: Fuc(a1-2)Gal(b1-4)GlcNAc(b1-6)GalNAc
Outline: as §1

[7] = biological target: Fuc(a1-2)Gal(b1-4)GlcNAc6S
Outline: as §1

[8] = biological target: Fuc(a1-2)Gal(b1-4)[Fuc(a1-3)]GlcNAc
Outline: as §1

[9] = biological target: Fuc(a1-2)Gal(b1-4)[Fuc(a1-3)]GlcNAc(b1-2)Man(a1-3)[Fuc(a1-2)Gal(b1-4)[Fuc(a1-3)]GlcNAc(b1-2)Man(a1-6)]Man(b1-4)GlcNAc(b1-4)[Fuc(a1-6)]GlcNAc
Outline: as §1

[10] = biological target: Fuc(a1-2)Gal(b1-4)[Fuc(a1-3)]GlcNAc(b1-2)[Fuc(a1-2)Gal(b1-4)[Fuc(a1-3)]GlcNAc(b1-4)]Man(a1-3)[Fuc(a1-2)Gal(b1-4)[Fuc(a1-3)]GlcNAc(b1-2)Man(a1-6)]Man(b1-4)GlcNAc(b1-4)GlcNAc
Outline: as §1

[11] = biological target: Fuc(a1-2)Gal(b1-4)[Fuc(a1-3)]GlcNAc(b1-3)Gal(b1-4)[Fuc(a1-3)]GlcNAc
Outline: as §1

[12] = biological target: Fuc(a1-2)Gal(b1-4)[Fuc(a1-3)]GlcNAc(b1-3)Gal(b1-4)[Fuc(a1-3)]GlcNAc(b1-3)Gal(b1-4)[Fuc(a1-3)]GlcNAc
Outline: as §1

[13] = biological target: Fuc(a1-2)Gal(b1-4)[Fuc(a1-3)]GlcNAc(b1-3)GalNAc
Outline: as §1

[14] = biological target: Fuc(a1-2)Gal(b1-4)[Fuc(a1-3)]GlcNAc(b1-3)[Neu5Ac(a2-6)Gal(b1-4)GlcNAc(b1-6)]Gal(b1-4)Glc
Outline: as §1

[15] = biological target: Fuc(a1-2)Gal3S(b1-4)GlcNAc
Outline: as §1

[16] = biological target: Fuc(a1-2)Gal6S(b1-3)GlcNAc
Outline: as §1

[17] = biological target: Fuc(a1-2)Gal6S(b1-3)GlcNAc6S
Outline: as §1

Fuc(a1-2)Gal6S(b1-4)Glc = biological target: Fuc(a1-2)Gal6S(b1-4)Glc
Outline: as §1

[18] = biological target: Fuc(a1-2)Gal6S(b1-4)Glc6S
Outline: as §1

Fuc(a1-2)[Gal(a1-3)]Gal = biological target: Fuc(a1-2)[Gal(a1-3)]Gal
Outline: as §1

[19] = biological target: Fuc(a1-2)[Gal(a1-3)]Gal(b1-3)GalNAc
Outline: as §1

[20] = biological target: Fuc(a1-2)[Gal(a1-3)]Gal(b1-3)GalNAc(b1-3)Gal(a1-4)Gal(b1-4)Glc
Outline: as §1

[21] = biological target: Fuc(a1-2)[Gal(a1-3)]Gal(b1-3)GlcNAc
Outline: as §1

[22] = biological target: Fuc(a1-2)[Gal(a1-3)]Gal(b1-3)GlcNAc(b1-2)Man(a1-3)[Fuc(a1-2)[Gal(a1-3)]Gal(b1-3)GlcNAc(b1-2)Man(a1-6)]Man(b1-4)GlcNAc(b1-4)GlcNAc
Outline: as §1

[23] = biological target: Fuc(a1-2)[Gal(a1-3)]Gal(b1-3)GlcNAc(b1-2)Man(a1-3)[Fuc(a1-2)[Gal(a1-3)]Gal(b1-3)GlcNAc(b1-2)Man(a1-6)]Man(b1-4)GlcNAc(b1-4)[Fuc(a1-6)]GlcNAc
Outline: as §1

[24] = biological target: Fuc(a1-2)[Gal(a1-3)]Gal(b1-3)GlcNAc(b1-3)GalNAc
Outline: as §1

[25] = biological target: Fuc(a1-2)[Gal(a1-3)]Gal(b1-3)GlcNAc(b1-6)GalNAc
Outline: as §1

[26] = biological target: Fuc(a1-2)[Gal(a1-3)]Gal(b1-4)Glc
Outline: as §1

[27] = biological target: Fuc(a1-2)[Gal(a1-3)]Gal(b1-4)GlcNAc
Outline: as §1

[28] = biological target: Fuc(a1-2)[Gal(a1-3)]Gal(b1-4)GlcNAc(b1-2)Man
Outline: as §1

B1: Epa2 (Candida glabrata) (protein)
chain: MGSSHHHHHHSSGLVPRGSHMASSKDPTSFPMGCSPQVLKTQPGLAVKLYSYGHPVPGCAYNTYQYPDFPRSGYKKERKLADITGVNGRIDIDLKPNDPCRVLSGNLPSNYNYQNTLTYTNFTMILYGYFQPKVTGYHTFNLEADDLLFMNLGAGNAFDCCRAESTLDNFGNYQSYSIWGTDKATADLTVFLVSGIYYPIRLFYVNRDNNAVLDFSFSTEFNKEIIHDFTSYFFSASDEEQCPGNI
How did the “glycan array binding signal (z-score)” value [1] turn out when B1 was run?
Its value is 0.042.

And the “glycan array binding signal (z-score)” value [2]?
The value was -0.48.

And the “glycan array binding signal (z-score)” value [3]?
The value was 0.309.

And the “glycan array binding signal (z-score)” value [4]?
Its value is 0.094.

And the “glycan array binding signal (z-score)” value [5]?
The value was -0.076.

And the “glycan array binding signal (z-score)” value [6]?
The value was 2.02.

And the “glycan array binding signal (z-score)” value [7]?
The value was -0.856.

What about the “glycan array binding signal (z-score)” value [8] of the same binder?
The value was -0.941.

And the “glycan array binding signal (z-score)” value [9]?
Its value is 0.021.

And the “glycan array binding signal (z-score)” value [10]?
The value was 0.204.

And the “glycan array binding signal (z-score)” value [11]?
Its value is -0.605.

And the “glycan array binding signal (z-score)” value [12]?
Its value is -0.648.

What about the “glycan array binding signal (z-score)” value [13] of the same binder?
The value was 4.06.

And the “glycan array binding signal (z-score)” value [14]?
The value was 0.379.

What about the “glycan array binding signal (z-score)” value [15] of the same binder?
Its value is -0.52.

And the “glycan array binding signal (z-score)” value [16]?
Its value is -0.448.

What about the “glycan array binding signal (z-score)” value [17] of the same binder?
Its value is 1.81.

What about the “glycan array binding signal (z-score)” value (Fuc(a1-2)Gal6S(b1-4)Glc) of the same binder?
The value was -0.517.

And the “glycan array binding signal (z-score)” value [18]?
The value was 1.03.

What about the “glycan array binding signal (z-score)” value (Fuc(a1-2)[Gal(a1-3)]Gal) of the same binder?
The value was 0.088.

And the “glycan array binding signal (z-score)” value [19]?
Its value is -0.272.

What about the “glycan array binding signal (z-score)” value [20] of the same binder?
The value was -0.435.

What about the “glycan array binding signal (z-score)” value [21] of the same binder?
Its value is -0.553.

And the “glycan array binding signal (z-score)” value [22]?
The value was -0.311.

What about the “glycan array binding signal (z-score)” value [23] of the same binder?
Its value is -0.346.

And the “glycan array binding signal (z-score)” value [24]?
The value was 0.104.

And the “glycan array binding signal (z-score)” value [25]?
Its value is -0.162.

What about the “glycan array binding signal (z-score)” value [26] of the same binder?
Its value is -0.664.

And the “glycan array binding signal (z-score)” value [27]?
The value was -0.1.

And the “glycan array binding signal (z-score)” value [28]?
The value was -0.03.

Source: the supplement of paper PMC8728848
